Assay [1] deals with T1, human tropomodulin 4 (Tmod4) (human) (UniProt Q9NZQ9).
T1 sequence: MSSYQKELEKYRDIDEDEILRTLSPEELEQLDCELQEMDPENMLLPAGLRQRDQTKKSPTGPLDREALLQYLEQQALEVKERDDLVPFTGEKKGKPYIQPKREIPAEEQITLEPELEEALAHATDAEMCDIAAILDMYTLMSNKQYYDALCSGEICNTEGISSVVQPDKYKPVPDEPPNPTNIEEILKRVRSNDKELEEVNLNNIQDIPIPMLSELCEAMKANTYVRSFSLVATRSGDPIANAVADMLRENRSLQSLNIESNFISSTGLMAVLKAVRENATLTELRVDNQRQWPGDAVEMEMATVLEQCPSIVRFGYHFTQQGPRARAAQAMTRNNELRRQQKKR
Put plainly: cross-linking; glutaraldehyde 0.002% or 0.008%, 30 mM HEPES pH 7.3, 200 mM NaCl, 30 °C, 15 and 60 min; Tpm 0.2 mg/mL, Tmod 0.12 mg/mL; SDS-PAGE in 12.5% gel; both purified.

Assay [2] has as its target T1, human tropomodulin 4 (Tmod4) (human). Briefly: SEC; Superose 6 Increase 10/300 GL, 50 mM HEPES-Na pH 7.3, 150 mM NaCl, 1 mM DTT, 0.5 mL/min, 280 nm; 30 µM Tpm and Tmod1, or 26 µM Tpm and 13 µM Tmod4; single proteins and mixtures; both purified.

Results are given in words; binding and its absence hold for the method and conditions named. Binding calls can cover weak binding; strength is not graded here.

Consider “human tropomyosin Tpm1.2 with Ala-Ser N-terminal extension”, for which the binding entry in assay [1] and in assay [2] was “binds” each time.
With “human tropomyosin Tpm1.1 with Ala-Ser N-terminal extension”, the binding result in assay [1] and in assay [2] was “binds” throughout.

Source of the values: paper PMC12109978.
